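Genome-wide siRNA knockdown in TC32 Ewing sarcoma cells, comparing luciferase light from an NR0B1-promoter reporter with a CMV-promoter reporter 48 hours after transfection. Each siRNA was applied at 20 nM. A z-score of the log NR0B1-over-CMV signal, less the median of siRNAs with the same seed; more negative means a stronger specific loss of the NR0B1 reporter.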

This is part of the screen; most of the strongest results are not listed here. Sequences are the guide (antisense) strand, without overhang.

{"strand": "UGAGUACAUAAUCACAUGG", "gene": "ELOVL4", "seed-corrected z-score": "0.313"}
{"strand": "UUGGUCAUCGAAUUUCUGG", "gene": "OCEL1", "seed-corrected z-score": "-0.6381"}
{"strand": "UGAUUUCGAAUAGAACUGG", "gene": "ZNF833P", "seed-corrected z-score": "0.4388"}
{"strand": "UAUACAGUCCAGGUGAUAG", "gene": "RNF11", "seed-corrected z-score": "-0.1979"}
{"strand": "UCACCAACAGGGACGAUCU", "gene": "STK35", "seed-corrected z-score": "-0.2044"}
{"strand": "UCAGCUUCUGGUGUCCUGG", "gene": "CNPPD1", "seed-corrected z-score": "-0.5868"}
{"strand": "UGAAUUUCAUGUGCUGCAG", "gene": "FBXL18", "seed-corrected z-score": "-0.4563"}
{"strand": "UUCCAUUAUCUUUAUGAUC", "gene": "NOL4", "seed-corrected z-score": "-0.6211"}
{"strand": "UCUCGAAUCCGGUUGUUCU", "gene": "LRRC52", "seed-corrected z-score": "-0.1367"}
{"strand": "UUCGUGCUCAUACUUGGUC", "gene": "KRT16", "seed-corrected z-score": "-0.3686"}
{"strand": "UAUAGGACACUUUCUGCAG", "gene": "ARRDC1", "seed-corrected z-score": "-0.06894"}
{"strand": "UUAGGCAUGACAUCUAAGC", "gene": "MRVI1", "seed-corrected z-score": "1.811"}
{"strand": "UCAGGAAUCUGGGAUAAGU", "gene": "BMP6", "seed-corrected z-score": "0.2906"}
{"strand": "UCAUCGAUCUGUUCAAAAG", "gene": "EXO1", "seed-corrected z-score": "-0.3881"}
{"strand": "UGUCACACGUUGGUCAUCC", "gene": "PCP2", "seed-corrected z-score": "0.1225"}
{"strand": "AGAAUCUUCAUAUACCUUG", "gene": "C17orf49", "seed-corrected z-score": "-0.8286"}
{"strand": "UUUAGGCCCAAACAUGGCU", "gene": "CRIP1", "seed-corrected z-score": "0.3369"}
{"strand": "UGAGGGAUAUGAGCAAGUC", "gene": "APOA1BP", "seed-corrected z-score": "-0.7969"}
{"strand": "UUUCUAGGAAUUGCUUUCC", "gene": "PDC", "seed-corrected z-score": "-0.4656"}
{"strand": "UUAGGUGCGAGGACUUGUA", "gene": "KLF16", "seed-corrected z-score": "-0.2402"}
{"strand": "AAAGUCCUGAGCGAUCUCG", "gene": "HIST3H3", "seed-corrected z-score": "-1.85"}
{"strand": "UGUGAUUAGAGCUCACUGA", "gene": "LOC644852", "seed-corrected z-score": "1.053"}
{"strand": "AUUACUUUCCUGAUGCUGC", "gene": "OR2B6", "seed-corrected z-score": "1.35"}
{"strand": "UUACUGUAACCAGAUGAGC", "gene": "SRSF8", "seed-corrected z-score": "1.142"}
{"strand": "UAUAAAAUCUCUAUGUUCC", "gene": "BHLHE41", "seed-corrected z-score": "0.1515"}
{"strand": "UGAGGAUCGUCACAAUUCC", "gene": "SEC11A", "seed-corrected z-score": "-1.102"}
{"strand": "UAUAAUGUGAUUAGAAAGG", "gene": "ZNF731P", "seed-corrected z-score": "0.1134"}
{"strand": "UUUACGGAUAAUGUUAGUG", "gene": "ZNF189", "seed-corrected z-score": "-0.1483"}

The first 3 entries again:

strand	gene	seed-corrected z-score
UGAGUACAUAAUCACAUGG	ELOVL4	0.313
UUGGUCAUCGAAUUUCUGG	OCEL1	-0.6381
UGAUUUCGAAUAGAACUGG	ZNF833P	0.4388

Data taken from PubChem BioAssay AID1159506, deposited by NCATS (2015).